Measurements as given in PubChem BioAssay AID601 (SRMLSC, 2007).
The list shows a part of the results.

Assay: MRP1 drug-resistance reversers in H69AR cells – cell-based, doxorubicin co-treatment, pilot screen (AID 601)
Settings: CellTiter-Glo, 72 h, at 10 µM
[1] = H69AR cells + 2 uM doxorubicin, measured here: viability with 2 uM doxorubicin, stronger effect = lower value
[2] = H69AR cells, compound alone cytotoxicity

| SMILES | viability [1] | viability [2] |
| --- | --- | --- |
| CCOP1(=S)c2c(C)nn(CCC#N)c2N=C(c2ccccc2F)N1C (stereo not given) | 79.6% | 79.3% |
| Cc1ccc(C)c(NP(C)(=O)Oc2ccccc2)c1 (stereo not given) | 87.5% | 91.4% |
| Cc1nn(-c2ccccc2)c2c1P(=O)(N1CCOCC1)N(C)C(c1ccccc1)=N2 (stereo not given) | 96.4% | 89.8% |
| CP(=S)(Nn1cnnc1)Oc1ccccc1 (stereo not given) | 93.6% | 83.6% |
| O=C(COc1ccccc1)OC1CN2CCC1CC2 (stereo not given) | 96.1% | 105% |
| COP1(=S)c2c(C)nn(CCC#N)c2N=C(c2ccc(F)cc2)N1C (stereo not given) | 82.5% | 78.2% |
| CP(=O)(Nc1ccccn1)Oc1ccccc1 (stereo not given) | 95.8% | 100% |
| CN(C)CCOC(=O)C(O)(c1ccccc1)C1CCCCC1 (stereo not given) | 83.2% | 93.2% |
| CP(=O)(Nc1ccc2c(c1)OCCO2)Oc1ccccc1 (stereo not given) | 88.3% | 87.5% |
| O=P(Nc1nccs1)(c1ccccc1)c1ccccc1 | 92.2% | 103% |
